No constants are given. Whether binding was seen depends on the method and setting. Some results given as binding are weak or reduced against the parent protein; the word gives no strength. For part of these data: Where a sequence is shown, tags or fusion partners need not be part of it. Each block holds one binder with its values, some of them ahead of it.
Tests used:
N-CD24 = target: T1, N-CD24; assay: ELISA
T1 sequence (chain, N-glycans removed with N-glycanase; sialic acid and O-glycans kept): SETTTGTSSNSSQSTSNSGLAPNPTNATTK

N-SA-O-CD24 = target: T2, N-SA-O-CD24; assay: ELISA
T2 sequence (chain, N-glycans, sialic acid and O-glycans removed): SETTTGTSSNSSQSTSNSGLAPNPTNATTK

[1] = target: T3, fully glycosylated CD24 (recombinant, from CHO cells); assay: ELISA
T3 sequence (chain, N-glycans, sialic acid and O-glycans kept (untreated)): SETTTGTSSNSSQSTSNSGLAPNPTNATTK

[2] = target: T4, human CD24 as expressed on cancer cell lines and in tumor tissues (human); assay: FACS on neuroblastoma cell lines
T4 sequence (chain, cancer-type glycosylation, not further described; GPI-linked): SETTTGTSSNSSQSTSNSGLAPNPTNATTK

[3] = target: T4, human CD24 as expressed on cancer cell lines and in tumor tissues (human); assay: IFA staining of medulloblastoma tumors
[4] = target: T4, human CD24 as expressed on cancer cell lines and in tumor tissues (human); assay: flow cytometry on neuroblastoma cell lines (FIG. 2A)
[5] = target: T4, human CD24 as expressed on cancer cell lines and in tumor tissues (human); assay: immunofluorescence staining of 4 medulloblastoma tumors
[6] = target: T4, human CD24 as expressed on cancer cell lines and in tumor tissues (human); assay: flow cytometry on IMR32, SK-N-SH, SH-SY5Y, SK-N-BE(2), SK-N-BE(2) C cells
CD24-GST fusion protein [7] = target: T5, CD24-GST fusion protein; assay: ELISA on coated CD24-GST with expression media, against IgG amount by anti-human IgG ELISA
T5 sequence: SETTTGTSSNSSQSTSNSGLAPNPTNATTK

[8] = target: T4, human CD24 as expressed on cancer cell lines and in tumor tissues (human); assay: flow cytometry on human cancer cell lines
[9] = target: T4, human CD24 as expressed on cancer cell lines and in tumor tissues (human); assay: flow cytometry on NCI-H727 and IMR32 cells
[10] = target: T4, human CD24 as expressed on cancer cell lines and in tumor tissues (human); assay: flow cytometry with biotinylated antibodies on NCI-H727 and IMR32 cells
[11] = target: T4, human CD24 as expressed on cancer cell lines and in tumor tissues (human); assay: antibody titration on H727 and IMR32 cells
CD24-GST fusion protein [12] = target: T5, CD24-GST fusion protein; assay: ELISA on coated CD24-GST, goat-anti-human IgG-HRP detection
[13] = target: T4, human CD24 as expressed on cancer cell lines and in tumor tissues (human); assay: immunofluorescence with biotinylated PP6373 on cancer tissues
3B6 [14] = assay: peptide inhibition assay
3B6 [15] = assay: peptide inhibition ELISA, peptide pre-incubated with 3B6, plate coated with NO-CD24

B1: 3B6 (antibody, V domains shown)
VH: EVKFEESGGGLVQPGGSIKLSCAASGVTFSEAWMDWVRQSPEKGLEWVAEIRDKTKNYVTYYAESVKGRFTISRDDSKSRVYLQMNNLRTEDTGIYYCTGAMDYWGQGTSVTVSS
VL: DIVMTQTPLSLSVTIGQPASISCKSSQSLLYSNGKTYLNWLQQRPGQSPKRLIYQVSKLDPGIPDRFSGSGSETDFTLKISRVEAEDLGIYYCLQGTSYPWTFGGGTKLEIKR
binding (N-CD24): binds
binding (N-SA-O-CD24): binds
binding [1]: binds
binding [2]: binds
binding [3]: binds
binding [4]: binds
binding [5]: binds
binding [6]: binds

B2: H1L3 (antibody, V domains shown)
VH: EVQFVESGGGLVQPGGSLKLSCAASGVTFSEAWMDWVRQASGKGLEWVGEIRDKPNSYVTYYAESVKGRFTISRDDSKNTAYLQMNSLKTEDTAVYYCTGAMDYWGQGTLVTVSS
VL: DIVMTQTPLSLSVTIGQPASISCKSSQSLLYSNGKTYLNWLLQKPGQSPKRLIYQVSKLDPGIPDRFSGSGSETDFTLKISRVEAEDVGIYYCMQGSSLPWTFGGGTKVEIKR
binding (CD24-GST fusion protein [7]): binds

B6: H2L3 (antibody, V domains shown)
VH: EVQFVESGGGLVQPGGSLKLSCAASGVTFSEAWMDWVRQASGKGLEWVAEIRDKPNSYVTYYAESVKGRFTISRDDSKSTAYLQMNSLKTEDTAVYYCTGAMDYWGQGTLVTVSS
VL: DIVMTQTPLSLSVTIGQPASISCKSSQSLLYSNGKTYLNWLLQKPGQSPKRLIYQVSKLDPGIPDRFSGSGSETDFTLKISRVEAEDVGIYYCMQGSSLPWTFGGGTKVEIKR
binding [8]: binds
binding [9]: binds
binding [10]: binds
binding (CD24-GST fusion protein [7]): binds

The remaining lines, values ahead:

binding (CD24-GST fusion protein [7]): binds
B3: H4L3 (antibody, V domains shown)
VH: EVQFVESGGGLVQPGGSLKLSCAASGVTFSEAWMDWVRQASGKGLEWVAEIRDKPNSYVTYYAESVKGRFTISRDDSKSTVYLQMNSLKTEDTAIYYCTGAMDYWGQGTLVTVSS
VL: DIVMTQTPLSLSVTIGQPASISCKSSQSLLYSNGKTYLNWLLQKPGQSPKRLIYQVSKLDPGIPDRFSGSGSETDFTLKISRVEAEDVGIYYCMQGSSLPWTFGGGTKVEIKR

binding [8]: binds
binding [9]: binds
binding [10]: binds
binding (CD24-GST fusion protein [7]): binds
B4: H3L3 (antibody, V domains shown)
VH: EVQFVESGGGLVQPGGSLKLSCAASGVTFSEAWMDWVRQASGKGLEWVAEIRDKPNSYVTYYAESVKGRFTISRDDSKSTAYLQMNSLKTEDTAIYYCTGAMDYWGQGTLVTVSS
VL: DIVMTQTPLSLSVTIGQPASISCKSSQSLLYSNGKTYLNWLLQKPGQSPKRLIYQVSKLDPGIPDRFSGSGSETDFTLKISRVEAEDVGIYYCMQGSSLPWTFGGGTKVEIKR

binding [11]: binds
binding (CD24-GST fusion protein [12]): binds
binding [13]: binds
binding [10]: binds
B5: PP6373 (antibody, human IgG1, kappa, V domains shown)
VH: EVKFEESGGGLVQPGGSIKLSCAASGVTFSEAWMDWVRQSPEKGLEWVAEIRDKPNSYVTYYAESVKGRFTISRDDSKSRVYLQMNNLRTEDTGIYYCTGAMDYWGQGTSVTVSS
VL: DIVMTQTPLSLSVTIGQPASISCKSSQSLLYSNGKTYLNWLQQRPGQSPKRLIYQVSKLDPGIPDRFSGSGSETDFTLKISRVEAEDLGIYYCMQGSSLPWTFGGGTKLEIKR

binding (3B6 [14]): binds
binding (3B6 [15]): binds
Binder: SNSGLAPNPT [peptide 4]

From US20250243292A1
